{
  "sequences": {"note": "Amino acid sequences for entries named in this document (tags omitted).", "UniProt Q8TCU6": "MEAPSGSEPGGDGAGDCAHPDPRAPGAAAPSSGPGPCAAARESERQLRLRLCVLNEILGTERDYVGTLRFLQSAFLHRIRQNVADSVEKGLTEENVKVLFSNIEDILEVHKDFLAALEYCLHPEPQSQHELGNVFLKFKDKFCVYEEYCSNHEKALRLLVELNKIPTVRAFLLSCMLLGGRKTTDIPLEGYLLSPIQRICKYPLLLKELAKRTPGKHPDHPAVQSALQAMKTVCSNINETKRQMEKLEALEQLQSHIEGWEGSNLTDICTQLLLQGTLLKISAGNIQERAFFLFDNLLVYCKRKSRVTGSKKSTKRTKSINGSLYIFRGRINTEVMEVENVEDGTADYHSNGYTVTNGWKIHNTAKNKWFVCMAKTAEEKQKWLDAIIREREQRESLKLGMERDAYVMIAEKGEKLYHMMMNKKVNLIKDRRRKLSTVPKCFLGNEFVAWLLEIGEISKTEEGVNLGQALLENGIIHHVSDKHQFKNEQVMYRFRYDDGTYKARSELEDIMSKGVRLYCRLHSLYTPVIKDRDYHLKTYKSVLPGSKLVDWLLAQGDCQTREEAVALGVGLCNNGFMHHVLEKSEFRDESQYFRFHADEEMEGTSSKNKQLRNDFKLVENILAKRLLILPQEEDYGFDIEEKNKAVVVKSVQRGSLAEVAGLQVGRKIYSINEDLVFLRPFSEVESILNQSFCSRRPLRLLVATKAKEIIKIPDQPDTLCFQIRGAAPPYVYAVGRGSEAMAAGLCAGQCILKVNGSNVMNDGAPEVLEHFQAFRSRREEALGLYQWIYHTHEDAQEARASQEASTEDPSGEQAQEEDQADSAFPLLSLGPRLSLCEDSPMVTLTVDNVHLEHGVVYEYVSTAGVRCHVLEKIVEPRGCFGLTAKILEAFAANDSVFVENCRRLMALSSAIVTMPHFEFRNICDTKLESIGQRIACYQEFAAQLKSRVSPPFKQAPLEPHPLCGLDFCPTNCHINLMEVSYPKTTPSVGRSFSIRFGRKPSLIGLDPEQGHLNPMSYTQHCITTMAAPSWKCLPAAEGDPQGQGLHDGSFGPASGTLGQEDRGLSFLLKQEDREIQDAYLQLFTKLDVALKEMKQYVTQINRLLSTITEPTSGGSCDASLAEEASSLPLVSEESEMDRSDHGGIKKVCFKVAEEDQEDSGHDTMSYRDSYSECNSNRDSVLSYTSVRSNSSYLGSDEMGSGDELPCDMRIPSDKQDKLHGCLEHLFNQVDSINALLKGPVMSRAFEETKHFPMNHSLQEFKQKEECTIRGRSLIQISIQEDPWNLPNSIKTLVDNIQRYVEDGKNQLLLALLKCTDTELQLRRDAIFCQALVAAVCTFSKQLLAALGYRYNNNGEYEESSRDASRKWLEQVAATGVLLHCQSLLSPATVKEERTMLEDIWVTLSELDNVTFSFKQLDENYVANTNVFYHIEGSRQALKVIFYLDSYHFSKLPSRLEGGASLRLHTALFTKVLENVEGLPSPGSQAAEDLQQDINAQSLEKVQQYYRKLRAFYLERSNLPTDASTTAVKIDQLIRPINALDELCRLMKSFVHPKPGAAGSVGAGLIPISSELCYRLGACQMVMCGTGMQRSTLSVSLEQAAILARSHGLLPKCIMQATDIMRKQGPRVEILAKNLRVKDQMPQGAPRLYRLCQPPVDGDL"},
  "source": "paper PMC4813545",
  "molecular_target": "T1, endogenous Norbin of HEK-293 cells (human (endogenous in HEK-293)) (UniProt Q9UBB6)",
  "T1 sequence": "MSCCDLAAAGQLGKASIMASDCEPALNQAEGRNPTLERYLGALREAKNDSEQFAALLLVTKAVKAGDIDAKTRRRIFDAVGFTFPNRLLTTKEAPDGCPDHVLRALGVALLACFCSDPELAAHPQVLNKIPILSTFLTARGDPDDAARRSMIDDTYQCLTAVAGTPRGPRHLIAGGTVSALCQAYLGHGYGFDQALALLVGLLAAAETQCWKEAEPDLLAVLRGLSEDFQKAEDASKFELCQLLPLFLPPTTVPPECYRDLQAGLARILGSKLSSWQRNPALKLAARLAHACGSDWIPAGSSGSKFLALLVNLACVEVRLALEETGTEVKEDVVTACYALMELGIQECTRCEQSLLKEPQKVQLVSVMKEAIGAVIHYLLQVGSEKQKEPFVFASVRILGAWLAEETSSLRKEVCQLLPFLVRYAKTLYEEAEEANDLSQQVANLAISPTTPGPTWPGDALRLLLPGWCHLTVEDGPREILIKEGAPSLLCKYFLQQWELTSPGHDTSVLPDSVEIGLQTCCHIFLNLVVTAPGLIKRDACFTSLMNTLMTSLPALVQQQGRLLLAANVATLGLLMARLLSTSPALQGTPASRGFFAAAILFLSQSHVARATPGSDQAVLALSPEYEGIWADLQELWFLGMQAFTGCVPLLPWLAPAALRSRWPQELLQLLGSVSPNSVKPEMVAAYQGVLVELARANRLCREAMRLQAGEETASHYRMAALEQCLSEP",
  "assay": "co-IP; HEK-293 lysate (1% Nonidet P-40 lysis buffer); immunoprecipitation with a pool of Norbin antibodies (C1, N4, N7) and protein A-Sepharose, mock with human serum IgG; Western blot with P-Rex1 6F12 and Norbin C3",
  "note": "These are yes or no findings as the source states them, for the method shown. Binding seen in cells or lysates may run through a third protein. Some entries that bind do so weakly or less than the wild type.",
  "data": [
    {"substance": "endogenous P-Rex1 of HEK-293 cells (from UniProt Q8TCU6 1-1659)", "values": [
      {"measurement": "binding", "value": "binds"}
    ]}
  ]
}
